Assay results from ChEMBL document CHEMBL4303122, “Identification of potential treatments for COVID-19 through artificial intelligence-enabled phenomic analysis of human cells infected with SARS-CoV-2” (2020).
Whole data set: some 1,600 compounds, median “Hit score” near 0.13, cut for the highest 2% near 0.46. Some of the results follow.

tested on: SARS-CoV-2; experiment: Antiviral activity against SARS-CoV-2 (USA-WA1/2020 strain) measured by imaging in HRCE cells at MOI 0.4 after 96 hrs (reported as hit score from 0-1 for on-disease vs off-disease activity: scores >0.6 considered hits); type: functional, Homo sapiens

SMILES	Hit score
CN(C)CCc1c[nH]c2ccc(C[C@H]3COC(=O)N3)cc12 [ZOLMITRIPTAN]	0.1454
COc1ccc(-c2noc(CC(=O)O)c2-c2ccc(OC)cc2)cc1 [MOFEZOLAC]	0.2188
NS(=O)(=O)c1cc2c(cc1Cl)NCNS2(=O)=O [HYDROCHLOROTHIAZIDE]	0.03672
C[N+]1(C)CCC(=C(c2ccccc2)c2ccccc2)CC1	0.06957
C[N+]12CCC(CC1)C(OC(=O)C(O)(c1ccccc1)c1ccccc1)C2 (stereo not drawn)	0.116
Cc1ccc(Cl)c(OCC(O)CNC(C)(C)C)c1 (stereo not drawn) [BUPRANOLOL]	0.4669
CC[C@]1(O)C[C@H]2CN(CCc3c([nH]c4ccccc34)[C@@](C(=O)OC)(c3cc4c(cc3OC)N(C=O)[C@H]3[C@@](O)(C(=O)OC)[C@H](OC(C)=O)[C@]5(CC)C=CCN6CC[C@]43[C@@H]65)C2)C1 [VINCRISTINE]	0.4904
CC(c1cc2ccccc2s1)N(O)C(N)=O (stereo not drawn) [ZILEUTON]	0.2291
C[C@@H]1CN(c2c(F)c(N)c3c(=O)c(C(=O)O)cn(C4CC4)c3c2F)C[C@H](C)N1 [SPARFLOXACIN]	0.1623
C[C@@H]1O[C@@H]1P(=O)(O)O [FOSFOMYCIN]	0.1171
NCc1ccccc1CC(=O)N[C@@H]1C(=O)N2C(C(=O)O)=C(CSc3nnnn3CC(=O)O)CS[C@H]12 [CEFORANIDE]	0.2346
CCN1CCN(C(=O)N[C@@H](C(=O)N[C@@H]2C(=O)N3[C@@H]2SC(C)(C)[C@@H]3C(=O)O)c2ccccc2)C(=O)C1=O [PIPERACILLIN]	0.2065
CC(C)CN(C[C@@H](O)[C@H](Cc1ccccc1)NC(=O)O[C@H]1CCOC1)S(=O)(=O)c1ccc(N)cc1	0.09042
COc1cc(C)nc(-n2nc(C)cc2OC)n1 [EPIRIZOLE]	0.2407
CS(=O)(=O)Nc1ccc([N+](=O)[O-])cc1Oc1ccccc1 [NIMESULIDE]	0.223
CCn1cc(C(=O)O)c(=O)c2cc(F)c(N3CCNC(C)C3)c(F)c21 (stereo not drawn) [LOMEFLOXACIN]	0.1087
CC(C)(C)OC(=O)N[C@H]1CCCCC/C=C\[C@@H]2C[C@@]2(C(=O)NS(=O)(=O)C2CC2)NC(=O)[C@@H]2C[C@@H](OC(=O)N3Cc4cccc(F)c4C3)CN2C1=O [DANOPREVIR]	0.1271
CC(=O)OC[C@H]1O[C@@H](n2ccc(=O)[nH]c2=O)[C@H](OC(C)=O)[C@@H]1OC(C)=O [URIDINE TRIACETATE]	0.05866

Copied from the list.
Value for C[N+]12CCC(CC1)C(OC(=O)C(O)(c1ccccc1)c1ccccc1)C2 (stereo not drawn) under Hit score: 0.116
Value for CCN1CCN(C(=O)N[C@@H](C(=O)N[C@@H]2C(=O)N3[C@@H]2SC(C)(C)[C@@H]3C(=O)O)c2ccccc2)C(=O)C1=O [PIPERACILLIN] under Hit score: 0.2065
